Laboratory results published in the supplement of paper PMC8047044.
Counter-ions that a name gives are not always drawn. This is one part of the list. Repeats are few or missing, and single values can be far off.

Test system: Neuro-2a
Assay: neurite formation score, plate-normalized to DMSO control mean 5.04 (score (0-8 scale)); higher = more or longer neurites
Conditions: 10 µM

**Q.** C=CC(=O)Nc1cccc(Sc2nc(Nc3ccc(N4CCN(C)CC4)cc3)ncc2Cl)c1 was tested. Which neurite formation score did it give?
**A.** 4.54

**Q.** With CN1CC[C@H](c2c(O)cc(O)c3c(=O)cc(-c4ccccc4Cl)oc23)[C@H](O)C1 [Flavopiridol hydrochloride] as the compound, how does the neurite formation score read?
**A.** 2.76

**Q.** With O=c1oc2c(O)c(O)cc3c(=O)oc4c(O)c(O)cc1c4c23 [Ellagic acid] as the compound, how does the neurite formation score read?
**A.** 2.76

**Q.** How did the neurite formation score turn out when N#CCNC(=O)c1ccc(-c2ccnc(Nc3ccc(N4CCOCC4)cc3)n2)cc1 was run?
**A.** 5.08

**Q.** For O=C(NOCC(O)CO)c1cc(Br)c(F)c(F)c1Nc1ccc(I)cc1F (centres undefined), which neurite formation score is on record?
**A.** 4.85

**Q.** Which neurite formation score does the source give for COc1ccc(-c2ccc3c(N4CCOCC4)nc(N4C[C@@H](C)O[C@@H](C)C4)nc3n2)cc1CO here?
**A.** 3.08

**Q.** How did the neurite formation score turn out when CCCCCCCCCCCC(=O)OCC(CO)OC(=O)CCCCCCCCCCC (centres undefined) [1,2-Dilauroyl-sn-glycerol] was run?
**A.** 4.52

**Q.** CC1=C(C(=O)Nc2cc3cn[nH]c3cc2F)C(c2ccc(C(F)(F)F)cc2)CC(=O)N1 (centres undefined) was tested. Which neurite formation score did it give?
**A.** 4.52

**Q.** Which neurite formation score does the source give for N#CC[C@H](C1CCCC1)n1cc(-c2ncnc3[nH]ccc23)cn1 [Ruxolitinib phosphate] here?
**A.** 5.41

**Q.** Which neurite formation score does the source give for CN1CCC(Nc2nc(Nc3ccc(Oc4ccccc4)cc3)c3c(=O)[nH]cc(Br)c3n2)CC1 here?
**A.** 1.09

**Q.** With CCC[C@H](NC(=O)/C(C#N)=C/c1cccc(Br)n1)c1ccccc1 as the compound, how does the neurite formation score read?
**A.** -0.147

**Q.** With COc1cc2c(Nc3ccc(NC(=O)c4ccccc4)cc3)ncnc2cc1OCCCN1CCOCC1 as the compound, how does the neurite formation score read?
**A.** 3.08

**Q.** Which neurite formation score does the source give for Cc1c(CN2CCN(C(=O)[C@H](C)O)CC2)sc2c(N3CCOCC3)nc(-c3cnc(N)nc3)nc12 here?
**A.** 2.86

**Q.** With Cc1c(F)cc(C(=O)NC2CC2)cc1-c1ccc(C(=O)NCC(C)(C)C)cn1 [Losmapimod] as the compound, how does the neurite formation score read?
**A.** 4.52
